Results published in publication doi:10.1101/2025.05.09.653063 (bioRxiv, 2025).
Numbering of substitutions follows the chain as printed. These are yes or no findings as the source states them, for the method shown. In cells and extracts the contact can be indirect. Binding calls can cover weak binding; strength is not graded here. Where a sequence is shown, tags or fusion partners need not be part of it. Values belong to the molecule of their own block, whether it stands above or below them.

How the values were obtained:
Assay in all cases: pull-down
[1] = target: T1, His-tagged wild type PsmA (Saccharolobus islandicus REY15A) (UniProt C3MQ43)
T1 sequence: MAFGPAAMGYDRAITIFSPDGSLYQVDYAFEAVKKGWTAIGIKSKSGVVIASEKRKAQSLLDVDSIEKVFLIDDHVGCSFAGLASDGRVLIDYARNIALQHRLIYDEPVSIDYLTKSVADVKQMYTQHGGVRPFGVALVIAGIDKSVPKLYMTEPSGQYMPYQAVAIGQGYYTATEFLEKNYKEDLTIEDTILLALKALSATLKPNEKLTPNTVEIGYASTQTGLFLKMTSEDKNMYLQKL

[2] = target: T2, His-tagged PsmA S200D (Saccharolobus islandicus REY15A) (UniProt C3MQ43)
T2 sequence: T1 sequence with S200D

[3] = target: T3, His-tagged PsmA T213E (Saccharolobus islandicus REY15A) (UniProt C3MQ43)
T3 sequence: T1 sequence with T213E

[4] = target: proteasome assembly factor SiRe_1163, overexpressed in Sa. islandicus (Saccharolobus islandicus REY15A) (UniProt F0NEV0)
[5] = target: proteasome assembly factor SiRe_1724, overexpressed in Sa. islandicus (Saccharolobus islandicus REY15A) (UniProt F0NIK1)

binding [1]: binds
binding [2]: binds
binding [3]: binds
Molecule: proteasome β subunit PsmB1 (SiRe_1237)

binding [4]: binds
binding [5]: binds
B1: His-tagged wild type PsmA (natural protein, Saccharolobus islandicus REY15A, UniProt C3MQ43 1-241, looked up)
chain: T1 sequence
